Each structure is given as a SMILES string. Structures can show the parent of a compound that is named as a salt. Some of the results follow. Repeats in this data set agree poorly, so a single value says little.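 HEK293T cells were given each compound shortly before transfection with a reporter in which red mCherry is followed by the SARS-CoV-2 frameshift element and then GFP in the −1 frame, so GFP appears only after frameshifting.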

From the supplement of paper PMC8256030 come the findings set out here.

The test system of the assay is HEK293T. In words: percent viability (nuclei count) relative to control; higher = more viable cells. As to conditions: 10 µM; 24 h.
Take `Cc1ccnc(NS(=O)(=O)c2ccc(N)cc2)n1` [sulfamerazine]: the percent viability worked out at 213%. For `CCN(CC)CCNC(=O)c1ccccc1O` [saletamide] the value was 167%.

Take `NCCc1cnc[nH]1`: the percent viability stood at 206%. Consider `Cn1c2ncnc-2c(O)n(C)c1=O` [choline theophyllinate], for which the percent viability turned out to be 71.7%. The result for `CC1(C)OC[C@@H]2O[C@@]3(C(=O)O)OC(C)(C)O[C@H]3[C@@H]2O1` [diprogulic acid] reads 93.6%; that for `CCC1NC(=O)c2cc(S(N)(=O)=O)c(Cl)cc2N1` (stereo not given) [quinethazone], 342%; that for `C/C=C/C(=O)N(CCC)C(CC)C(=O)N(C)C` (stereo not given) [cropropamide], 81.1%. For the compound `CC(=O)c1ccc2c(c1)N(CCCN(C)C)c1ccccc1S2`, the percent viability came to 427%. The result for `CC(=O)NS(=O)(=O)c1ccc(NC(=O)c2ccccc2C(=O)O)cc1` reads 213%; that for `Cc1nnc(SCC2=C(C(=O)O)N3C(=O)[C@@H](NC(=O)Cn4cnnn4)[C@H]3SC2)s1`, 111%; that for `CCC(NC(C)C)C(O)c1ccc(O)c(O)c1` (stereo not given), 213%. For `C[S+](CC[C@H](N)C(=O)[O-])C[C@H]1O[C@@H](n2cnc3c(N)ncnc32)[C@H](O)[C@@H]1O` (stereo not given in full) [S-Adenosylmethionine], the percent viability was 189%.

For the compound `CCOC(=O)O[C@]1(C(=O)COC(=O)CC)CC[C@H]2[C@@H]3CCC4=CC(=O)C=C[C@]4(C)[C@H]3[C@@H](O)C[C@@]21C` [Prednicarbate], the percent viability is 188%. For `Clc1cccc(Cl)c1NC1=NCCN1` [Clonidine·HCl] the value was 281%. For `O=C(O)CCC(=O)Nc1ccc(S(=O)(=O)Nc2nccs2)cc1` [succinylsulfathiazole] the value was 368%.
